# Measured values taken from the supplement of paper PMC8728848.
# Some of the results follow.
# B1: AT5G24760(45) (Arabidopsis thaliana), Q8LEB2 (protein)
# chain: MSASSSSFEQPQVITCNAAVAWRAGEPLVMEEVEVSPPQPLEIRIKVVCTSLCRSDLSAWESQSLLPRIFGHEAAGIVESIGEGVTEFEKGDHVLAVFTGECGSCRHCISGKSNMCQVLGMERKGLMHSDQKTRFSIKGKPVYHYCAVSSFSEYTVVHSGCAVKVDPLAPLHKICLLSCGVAAGLGAAWNVADVQKGSSVVIFGLGTVGLSVAQGAKLRGAAQILGVDINPAKAEQAKTFGVTDFINSNDLSEPIPQVIKRMTGGGADFSFECVGDTGIATTALQSCSDGWGMTVTLGVPKAKPEVSAHYGLFLSGKSLKGTLFGGWKPKSDLPSLIDKYMNKEIMIDEFITHNLSFDEINKAFVLMREGKCLRCVLHMPK
# Tests used:
# Experiment in all cases: glycan array binding signal (z-score within array); higher = stronger binding
# Conditions in all cases: glycan notation: IUPAC condensed, linker removed
# [1] = target: Fuc(a1-2)Gal
# How it was run: (§1)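 The Consortium for Functional Glycomics database supplied 3228 glycan arrays, of which those lacking an available protein sequence were dropped. The binding signal, a within-array Z-score, was averaged across arrays of the same protein sequence and across linkers. Negative scores can be read as non-binding.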
# [2] = target: Fuc(a1-2)Gal(b1-3)GalNAc
# How it was run: as §1
# [3] = target: Fuc(a1-2)Gal(b1-3)GalNAc(a1-3)[Fuc(a1-2)]Gal(b1-4)Glc
# How it was run: as §1
# [4] = target: Fuc(a1-2)Gal(b1-3)GalNAc(a1-3)[Fuc(a1-2)]Gal(b1-4)GlcNAc
# How it was run: as §1
# [5] = target: Fuc(a1-2)Gal(b1-3)GalNAc(b1-3)Gal
# How it was run: as §1
# [6] = target: Fuc(a1-2)Gal(b1-3)GalNAc(b1-3)Gal(a1-4)Gal(b1-4)Glc
# How it was run: as §1
# [7] = target: Fuc(a1-2)Gal(b1-3)GalNAc(b1-4)[Neu5Ac(a2-3)]Gal(b1-4)Glc
# How it was run: as §1
# [8] = target: Fuc(a1-2)Gal(b1-3)GlcNAc
# How it was run: as §1
# [9] = target: Fuc(a1-2)Gal(b1-3)GlcNAc(b1-2)Man(a1-3)[Fuc(a1-2)Gal(b1-3)GlcNAc(b1-2)Man(a1-6)]Man(b1-4)GlcNAc(b1-4)GlcNAc
# How it was run: as §1
# [10] = target: Fuc(a1-2)Gal(b1-3)GlcNAc(b1-2)Man(a1-3)[Fuc(a1-2)Gal(b1-3)GlcNAc(b1-2)Man(a1-6)]Man(b1-4)GlcNAc(b1-4)[Fuc(a1-6)]GlcNAc
# How it was run: as §1
# [11] = target: Fuc(a1-2)Gal(b1-3)GlcNAc(b1-3)Gal(b1-4)Glc
# How it was run: as §1
# [12] = target: Fuc(a1-2)Gal(b1-3)GlcNAc(b1-3)GalNAc
# How it was run: as §1
# [13] = target: Fuc(a1-2)Gal(b1-3)GlcNAc(b1-3)[Fuc(a1-2)Gal(b1-3)GlcNAc(b1-6)]GalNAc
# How it was run: as §1
# [14] = target: Fuc(a1-2)Gal(b1-3)GlcNAc(b1-3)[Gal(b1-4)GlcNAc(b1-6)]Gal(b1-4)Glc
# How it was run: as §1
# [15] = target: Fuc(a1-2)Gal(b1-3)GlcNAc(b1-3)[Neu5Ac(a2-6)Gal(b1-4)GlcNAc(b1-6)]Gal(b1-4)Glc
# How it was run: as §1
# [16] = target: Fuc(a1-2)Gal(b1-3)GlcNAc6S
# How it was run: as §1
# [17] = target: Fuc(a1-2)Gal(b1-3)[Fuc(a1-4)]GlcNAc
# How it was run: as §1
# [18] = target: Fuc(a1-2)Gal(b1-3)[Fuc(a1-4)]GlcNAc(b1-2)Man(a1-3)[Fuc(a1-2)Gal(b1-3)[Fuc(a1-4)]GlcNAc(b1-2)Man(a1-3)]Man(b1-4)GlcNAc(b1-4)GlcNAc
# How it was run: as §1
# [19] = target: Fuc(a1-2)Gal(b1-3)[Fuc(a1-4)]GlcNAc(b1-2)Man(a1-3)[Fuc(a1-2)Gal(b1-3)[Fuc(a1-4)]GlcNAc(b1-2)Man(a1-6)]Man(b1-4)GlcNAc(b1-4)[Fuc(a1-6)]GlcNAc(b1-4)[Fuc(a1-6)]GlcNAc
# How it was run: as §1
# [20] = target: Fuc(a1-2)Gal(b1-3)[Fuc(a1-4)]GlcNAc(b1-3)[Fuc(a1-3)[Gal(b1-4)]GlcNAc(b1-6)]Gal(b1-4)Glc
# How it was run: as §1
# [21] = target: Fuc(a1-2)Gal(b1-3)[Fuc(a1-4)]GlcNAc(b1-3)[Gal(b1-4)GlcNAc(b1-6)]Gal(b1-4)Glc
# How it was run: as §1
# [22] = target: Fuc(a1-2)Gal(b1-4)Fuc(a1-3)]GlcNAc(b1-2)Man(a1-3)[Fuc(a1-2)Gal(b1-4)[Fuc(a1-3)]GlcNAc(b1-2)Man(a1-6)]Man(b1-4)GlcNAc(b1-4)GlcNAc
# How it was run: as §1
# [23] = target: Fuc(a1-2)Gal(b1-4)Glc
# How it was run: as §1
# [24] = target: Fuc(a1-2)Gal(b1-4)Glc6S
# How it was run: as §1
# [25] = target: Fuc(a1-2)Gal(b1-4)GlcNAc
# How it was run: as §1
# [26] = target: Fuc(a1-2)Gal(b1-4)GlcNAc(b1-2)Man
# How it was run: as §1
# [27] = target: Fuc(a1-2)Gal(b1-4)GlcNAc(b1-2)Man(a1-3)[Fuc(a1-2)Gal(b1-4)GlcNAc(b1-2)Man(a1-6)]Man(b1-4)GlcNAc(b1-4)GlcNAc
# How it was run: as §1
# [28] = target: Fuc(a1-2)Gal(b1-4)GlcNAc(b1-2)Man(a1-3)[Fuc(a1-2)Gal(b1-4)GlcNAc(b1-2)Man(a1-6)]Man(b1-4)GlcNAc(b1-4)[Fuc(a1-6)]GlcNAc
# How it was run: as §1
# [29] = target: Fuc(a1-2)Gal(b1-4)GlcNAc(b1-2)[Fuc(a1-2)Gal(b1-4)GlcNAc(b1-4)]Man(a1-3)[Fuc(a1-2)Gal(b1-4)GlcNAc(b1-2)Man(a1-6)]Man(b1-4)GlcNAc(b1-4)GlcNAc
# How it was run: as §1
# [30] = target: Fuc(a1-2)Gal(b1-4)GlcNAc(b1-3)Gal(b1-4)GlcNAc
# How it was run: as §1
binder,measurement,setting,value
B1,glycan array binding signal (z-score),[1],1.93
same,glycan array binding signal (z-score),[2],0.024
same,glycan array binding signal (z-score),[3],-0.218
same,glycan array binding signal (z-score),[4],-0.699
same,glycan array binding signal (z-score),[5],0.643
same,glycan array binding signal (z-score),[6],-0.051
same,glycan array binding signal (z-score),[7],-0.481
same,glycan array binding signal (z-score),[8],-0.229
same,glycan array binding signal (z-score),[9],0.206
same,glycan array binding signal (z-score),[10],0.853
same,glycan array binding signal (z-score),[11],-0.038
same,glycan array binding signal (z-score),[12],-0.071
same,glycan array binding signal (z-score),[13],-0.267
same,glycan array binding signal (z-score),[14],-0.238
same,glycan array binding signal (z-score),[15],-0.647
same,glycan array binding signal (z-score),[16],0.053
same,glycan array binding signal (z-score),[17],-0.915
same,glycan array binding signal (z-score),[18],1.53
same,glycan array binding signal (z-score),[19],-0.101
same,glycan array binding signal (z-score),[20],-0.903
same,glycan array binding signal (z-score),[21],-1.1
same,glycan array binding signal (z-score),[22],0.055
same,glycan array binding signal (z-score),[23],1.45
same,glycan array binding signal (z-score),[24],0.082
same,glycan array binding signal (z-score),[25],0.67
same,glycan array binding signal (z-score),[26],0.888
same,glycan array binding signal (z-score),[27],-0.974
same,glycan array binding signal (z-score),[28],-0.386
same,glycan array binding signal (z-score),[29],-0.052
same,glycan array binding signal (z-score),[30],-0.16
